Data as given in publication PMC8803112.

Sequences of proteins named here, by UniProt entry; tags and fusion partners are left off.
UniProt P04003: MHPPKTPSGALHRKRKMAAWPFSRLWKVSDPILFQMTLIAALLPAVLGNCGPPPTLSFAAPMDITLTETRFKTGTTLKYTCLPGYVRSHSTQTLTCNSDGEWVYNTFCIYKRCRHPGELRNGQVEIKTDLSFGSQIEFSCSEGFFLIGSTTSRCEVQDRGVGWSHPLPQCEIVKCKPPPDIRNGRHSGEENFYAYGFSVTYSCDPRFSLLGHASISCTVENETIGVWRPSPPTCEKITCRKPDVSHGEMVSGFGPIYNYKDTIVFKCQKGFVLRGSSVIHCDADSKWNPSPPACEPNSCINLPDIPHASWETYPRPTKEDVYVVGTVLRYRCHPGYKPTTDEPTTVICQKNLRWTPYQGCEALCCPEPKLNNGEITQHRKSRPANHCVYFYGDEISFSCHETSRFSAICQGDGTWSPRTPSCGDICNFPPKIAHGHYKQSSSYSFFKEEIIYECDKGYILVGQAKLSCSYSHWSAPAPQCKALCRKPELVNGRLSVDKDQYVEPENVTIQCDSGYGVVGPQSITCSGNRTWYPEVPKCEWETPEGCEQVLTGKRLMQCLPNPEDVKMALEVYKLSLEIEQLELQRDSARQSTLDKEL

Columns and labels:
[1] = molecular target: complement evasion factor (CEF), recombinant Spy0136 (Streptococcus pyogenes SF370) (UniProt Q9A1R6); assay: ELISA; rCEF coated at 1 µg/well; complement proteins at 0, 0.25, 0.5, 1.0, 1.5 and 2 µg/well in 50 mM NaCl, 20 mM Tris-HCl pH 7.4, 1 mM CaCl2, 2 h at 37°C; detected with specific primary antibodies and HRP anti-rabbit IgG; proteins untreated or treated with PNGase F; both purified
[2] = molecular target: complement evasion factor (CEF), recombinant Spy0136 (Streptococcus pyogenes SF370) (UniProt Q9A1R6); assay: as above; remark: listed apart in the source

Molecule	binding [1]	binding [2]
C4BPA, recombinant protein expressed from a wheat germ in-vitro system (from UniProt P04003 1-597)	no binding (tested: 2 μg/well)	–
complement protein C2, recombinant protein expressed in HEK293 (protein, UniProt P06681 21-752) APSCPQNVNISGGTFTLSHGWAPGSLLTYSCPQGLYPSPASRLCKSSGQWQTPGATRSLSKAVCKPVRCPAPVSFENGIYTPRLGSYPVGGNVSFECEDGFILRGSPVRQCRPNGMWDGETAVCDNGAGHCPNPGISLGAVRTGFRFGHGDKVRYRCSSNLVLTGSSERECQGNGVWSGTEPICRQPYSYDFPEDVAPALGTSFSHMLGATNPTQKTKESLGRKIQIQRSGHLNLYLLLDCSQSVSENDFLIFKESASLMVDRIFSFEINVSVAIITFASEPKVLMSVLNDNSRDMTEVISSLENANYKDHENGTGTNTYAALNSVYLMMNNQMRLLGMETMAWQEIRHAIILLTDGKSNMGGSPKTAVDHIREILNINQKRNDYLDIYAIGVGKLDVDWRELNELGSKKDGERHAFILQDTKALHQVFEHMLDVSKLTDTICGVGNMSANASDQERTPWHVTIKPKSQETCRGALISDQWVLTAAHCFRDGNDHSLWRVNVGDPKSQWGKEFLIEKAVISPGFDVFAKKNQGILEFYGDDIALLKLAQKVKMSTHARPICLPCTMEANLALRRPQGSTCRDHENELLNKQSVPAHFVALNGSKLNINLKMGVEWTSCAEVVSQEKTMFPNLTDVREVVTDQFLCSGTQEDESPCKGESGGAVFLERRFRFFQVGLVSWGLYNPCLGSADKNSRKRAPRSKVPPPRDFHINLFRMQPWLRQHLGDVLNFLPL	–	no binding (tested: 2 μg/well)

Like-named read-outs stand apart in the source and are kept apart here. These are yes or no findings as the source states them, for the method shown.
